The values that follow come from PubChem BioAssay AID248 (DTP/NCI, 2004).

The list does not hold the whole screen: it is rich in T/C values a quarter to a half above the control, in often repeated tests (any T/C) and in doses without a T/C. Further doses and runs are listed elsewhere. T/C: endpoint of the treated group in % of that of the vehicle group. Some entries give survivors of the animals treated and no T/C: the source files T/C as zero there, which appears to mark a toxic dose or a test without result, not a measured value. Some survivor counts are full or nearly so, which does not show that the dose was tolerated: the source hardly ever lists a survival T/C far under the control, and the zero likely stands for such cases as well. Survivors were counted at the toxicity check, usually on the fifth day, unless a day is given; later deaths do not show. Schedules are NCI's codes, read here as Q, the interval in days (D) or hours (H), X, the number of doses. Some doses were run more than once; the results are listed from low to high. For survival time, this PubChem deposit counts one and a half times the control or more as active, and values a quarter to a half above the control carry no call in these data; other NCI protocols may use other cut-offs. Some schedules carry Z or #; the key to these is not given.

The subject of this assay is L1210 leukemia ip in BDF1 mice, survival T/C. Briefly: NCI In Vivo Anticancer Drug Screen. Data for tumor model L1210 Leukemia (intraperitoneal) in B6D2F1 (BDF1) mice. To be noted: T/C endpoint: mean survival time, higher T/C = longer survival.
Setting [1] is: dose: 400.0 mg/kg/injection, schedule: Q04DX003 (ip), vehicle: Klucel (hydroxypropylcellulose) (HPC).
Where [2] appears, read: dose: 400.0 mg/kg/injection, schedule: Q01DX001 (ip), vehicle: Klucel (hydroxypropylcellulose) (HPC).
[3] abbreviates: dose: 400.0 mg/kg/injection, schedule: Q01DX009 (ip), vehicle: Klucel (hydroxypropylcellulose) (HPC).
Setting [4] is: dose: 200.0 mg/kg/injection, schedule: Q01DX001 (ip), vehicle: saline.
Where [5] appears, read: dose: 400.0 mg/kg/injection, schedule: Q01DX001 (ip), vehicle: saline.

Take `O=c1ccc2c(COc3ccc(Cl)cc3Cl)c3ccc(O)cc3oc-2c1`: the survivor count under setting [1] is recorded as 3 of 6.
Turning to `CCN1C(N)=NC(N)=NC1c1ccccc1` (stereo not given), the survivor count by setting is: (dose: 200.0 mg/kg/injection, schedule: Q01DX001 (ip), vehicle: Klucel (hydroxypropylcellulose) (HPC)) 0 of 3; under setting [2], 0 of 3.
As for `CN(N=O)C(=O)NCCCl`, the T/C by setting is: (dose: 50.0 mg/kg/injection, schedule: Q01DX001 (ip), vehicle: Klucel (hydroxypropylcellulose) (HPC), evaluated on day 5) 102 and 103 % of control; (dose: 50.0 mg/kg/injection, schedule: Q01DX001 (ip), vehicle: Klucel (hydroxypropylcellulose) (HPC), evaluated on day 45) 102 and 103 % of control; (dose: 50.0 mg/kg/injection, schedule: Q01DX Z (ip), vehicle: carboxymethylcellulose (CMC)) 125 % of control; (dose: 100.0 mg/kg/injection, schedule: Q01DX001 (ip), vehicle: Klucel (hydroxypropylcellulose) (HPC), evaluated on day 5) 103 and 106 % of control; (dose: 100.0 mg/kg/injection, schedule: Q01DX001 (ip), vehicle: Klucel (hydroxypropylcellulose) (HPC), evaluated on day 45) 103 and 106 % of control; (dose: 100.0 mg/kg/injection, schedule: Q01DX Z (ip), vehicle: carboxymethylcellulose (CMC)) 135 % of control. The T/C (dose: 150.0 mg/kg/injection, schedule: Q01DX Z (ip), vehicle: carboxymethylcellulose (CMC)) was 146 % of control and the T/C (dose: 200.0 mg/kg/injection, schedule: Q01DX Z (ip), vehicle: carboxymethylcellulose (CMC)) is 141 % of control. Moreover, the survivor count under setting [2] is reported as 2 of 9.
Regarding `Cc1ccc(C)c(NC(=O)Oc2ccc(C(=O)OCc3ccccc3)cc2)c1`, under setting [3], the survivor count is given as 5 of 6.
Take `O=C(O)CCCc1cccc2ccccc12`: the survivor count (dose: 400.0 mg/kg/injection, schedule: Q04DX003 (ip), vehicle: gum acacia) was 1 of 6.
For `Cc1cc(=O)oc2cc(OC(=O)Nc3ccc(F)c([N+](=O)[O-])c3)ccc12`, the survivor count under setting [3] is given as 2 of 6.
With `CN(C)C(=O)N/N=C/c1ccc(Cl)cc1`, the survivor count (dose: 400.0 mg/kg/injection, schedule: Q01DX009 (ip), vehicle: saline with Tween-80) is given as 3 of 6.
With `C=COC(=O)CCCCCCC` (tested in a mixture with another compound), the T/C (dose: 10.0 mg/kg/injection, schedule: Q01DX001 (ip), vehicle: acetone) is 134 % of control. Also, the survivor count was 3 of 6 (dose: 15.0 mg/kg/injection, schedule: Q01DX001 (ip), vehicle: acetone); 0 of 4 (dose: 100.0 mg/kg/injection, schedule: Q01DX001 (ip), vehicle: acetone); 0 of 4 (dose: 100.0 mg/kg/injection, schedule: Q01DX001 (ip), vehicle: other); 2 of 4 (dose: 200.0 mg/kg/injection, schedule: Q01DX001 (ip), vehicle: acetone); 0 of 4 (dose: 200.0 mg/kg/injection, schedule: Q01DX001 (ip), vehicle: other); 0 of 4 and 2 of 4 under setting [4]. In addition, the survivor count was 0 of 4 (dose: 400.0 mg/kg/injection, schedule: Q01DX001 (ip), vehicle: acetone); 0 of 4 (dose: 400.0 mg/kg/injection, schedule: Q01DX001 (ip), vehicle: other); 0 of 4 under setting [5].
Consider `CCC12CC3(C(=O)OC)OC1C(O)CN1CCc4c(n3c3cc(OC)ccc43)C12` (stereo not given), for which the survivor count (dose: 100.0 mg/kg/injection, schedule: Q04DX002 (ip), vehicle: saline with Tween-80) was 3 of 3.
Turning to `NC(=O)c1ccccn1`, the survivor count reads like this: (dose: 100.0 mg/kg/injection, schedule: Q04DX003 (ip), vehicle: Klucel (hydroxypropylcellulose) (HPC)) 3 of 6; under setting [1], 2 of 6.
Consider `CCCCOP(=O)(/C=C\c1ccco1)OCCCC`, for which the survivor count is, setting by setting: (dose: 200.0 mg/kg/injection, schedule: Q01DX009 (ip), vehicle: carboxymethylcellulose (CMC)) 2 of 6; (dose: 400.0 mg/kg/injection, schedule: Q01DX009 (ip), vehicle: carboxymethylcellulose (CMC)) 0 of 6.
Regarding `CCC(C)C(C(=O)OCCN(CC)CC)c1ccccc1` (stereo not given), under setting [1], the survivor count is given as 1 of 6.
On to `O=C(O)C1OC(n2cc(F)c(=O)[nH]c2=O)CC1O` (stereo not given), for which the survivor count was 6 of 6 (dose: 100.0 mg/kg/injection, schedule: Q01DX005 (ip), vehicle: saline) and 5 of 6 (dose: 200.0 mg/kg/injection, schedule: Q01DX005 (ip), vehicle: saline).
In the case of `O=NN(CCCl)C(=O)N1CCN(C(=O)N(CCCl)N=O)CC1`, the T/C was 127 % of control (dose: 50.0 mg/kg/injection, schedule: Q01DX001 (ip), vehicle: carboxymethylcellulose (CMC)) and 127 % of control (dose: 100.0 mg/kg/injection, schedule: Q01DX001 (ip), vehicle: carboxymethylcellulose (CMC)). For the same molecule, the survivor count by setting is: (dose: 500.0 mg/kg/injection, schedule: Q01DX001 (ip), vehicle: carboxymethylcellulose (CMC)) 6 of 6; (dose: 600.0 mg/kg/injection, schedule: Q01DX001 (ip), vehicle: carboxymethylcellulose (CMC)) 5 of 6; (dose: 800.0 mg/kg/injection, schedule: Q01DX001 (ip), vehicle: carboxymethylcellulose (CMC)) 6 of 6; (dose: 1000.0 mg/kg/injection, schedule: Q01DX001 (ip), vehicle: carboxymethylcellulose (CMC)) 6 of 6.
`CC(=O)C(C(C)=O)C(c1ccccc1)C(C(C)=O)C(C)=O`: the survivor count under setting [3] is recorded as 3 of 6.
Turning to `Cc1cc(C)c(OS(=O)(=O)c2ccc([N+](=O)[O-])cc2)c(C)c1`, the survivor count (dose: 100.0 mg/kg/injection, schedule: Q01DX009 (ip), vehicle: saline with Tween-80) is 6 of 6.
As to `N#CC1C2C=CC(CC2)C1C#N` (stereo not given) (tested in a mixture with another compound), the survivor count runs as follows: (dose: 20.0 mg/kg/injection, schedule: Q01DX001 (ip), vehicle: saline) 1 of 4; (dose: 40.0 mg/kg/injection, schedule: Q01DX001 (ip), vehicle: saline) 0 of 4; (dose: 50.0 mg/kg/injection, schedule: Q01DX001 (ip), vehicle: saline) 0 of 4; (dose: 80.0 mg/kg/injection, schedule: Q01DX001 (ip), vehicle: saline) 0 of 4; (dose: 100.0 mg/kg/injection, schedule: Q01DX001 (ip), vehicle: saline) 0 of 4; under setting [4], 0 of 4. For the same molecule, the survivor count under setting [5] is 0 of 4.
Take `O=C(O)c1ccc(COc2ccc([N+](=O)[O-])cc2Cl)cc1`: the survivor count (dose: 400.0 mg/kg/injection, schedule: Q01DX009 (ip), vehicle: saline sonified) is recorded as 5 of 6.
Regarding `CCC1CCCCN1C` (stereo not given), the survivor count by setting is: (dose: 150.0 mg/kg/injection, schedule: Q01DX009 (ip), vehicle: saline with Tween-80) 0 of 6; (dose: 225.0 mg/kg/injection, schedule: Q01DX009 (ip), vehicle: saline with Tween-80) 0 of 6; (dose: 335.0 mg/kg/injection, schedule: Q01DX009 (ip), vehicle: saline with Tween-80) 0 of 6.
For `CNC1(Cc2ccc(F)cc2)CCC1`, the survivor count reads like this: (dose: 200.0 mg/kg/injection, schedule: Q01DX009 (ip), vehicle: saline) 0 of 6; (dose: 400.0 mg/kg/injection, schedule: Q01DX009 (ip), vehicle: saline) 0 of 6.
As for `C[n+]1ccc2cc(-c3ccccc3)c3ccccc3c2c1`, the survivor count was 0 of 6 (dose: 25.0 mg/kg/injection, schedule: Q01DX009 (ip), vehicle: water); 0 of 6 (dose: 50.0 mg/kg/injection, schedule: Q04DX003 (ip), vehicle: water); 0 of 6 (dose: 100.0 mg/kg/injection, schedule: Q04DX003 (ip), vehicle: water); 0 of 6 (dose: 200.0 mg/kg/injection, schedule: Q04DX003 (ip), vehicle: water); 0 of 6 (dose: 400.0 mg/kg/injection, schedule: Q04DX003 (ip), vehicle: water).
